Measurements reported in PubChem BioAssay AID248 (DTP/NCI, 2004).
The list is a part of this screen's results and no random one: its compounds were picked by chemical class. Not every dose and run of a compound is shown. T/C: endpoint of the treated group in % of that of the vehicle group. For survival time, the PubChem record calls one and a half times the control and up active, and a quarter to a half above the control has no call in these data; cut-offs in other NCI protocols can differ. Some T/C values are marked as having no survivor count here; that says nothing about deaths at the dose. Schedule codes are those of the source, taken here to give the interval after Q, in days (D) or hours (H), and the number of doses after X. Some entries were tested several times; their values stand side by side, smallest first. Counts like (3×) give the number of equal values in this list. Some schedules carry Z or #; the key to these is not given.

Tested on: L1210 leukemia ip in BDF1 mice, survival T/C
Experiment: NCI In Vivo Anticancer Drug Screen. Data for tumor model L1210 Leukemia (intraperitoneal) in B6D2F1 (BDF1) mice
Settings: T/C endpoint: mean survival time, higher T/C = longer survival

## CN(CCCl)CCCl
dose: 3.5 mg/kg/injection, schedule: Q07DX Z (ip), vehicle: saline
  T/C: 132 % of control [survivor count not shown]
dose: 3.6 mg/kg/injection, schedule: Q01DX001 (ip), vehicle: saline
  T/C: 221 % of control [survivor count not shown]
dose: 4.0 mg/kg/injection, schedule: Q01DX001 (ip), vehicle: saline
  T/C: 193 % of control [survivor count not shown]
dose: 4.0 mg/kg/injection, schedule: Q01DX Z (oral), vehicle: saline
  T/C: 118 % of control [survivor count not shown]
dose: 4.0 mg/kg/injection, schedule: Q04DX003 (ip), vehicle: clinical formulation
  T/C: 100 % of control [survivor count not shown]
dose: 4.0 mg/kg/injection, schedule: Q04DX003 (ip), vehicle: none
  T/C: 90 [survivor count not shown] and 99 % of control [survivor count not shown]
dose: 4.0 mg/kg/injection, schedule: Q04DX003 (ip), vehicle: saline
  T/C: 104 % of control [survivor count not shown]
dose: 4.0 mg/kg/injection, schedule: Q04DX003 (ip), vehicle: water
  T/C: 86 [survivor count not shown] (2×), 91 [survivor count not shown], 100 % of control [survivor count not shown]
dose: 4.5 mg/kg/injection, schedule: Q01DX001 (ip), vehicle: saline
  T/C: 219 % of control [survivor count not shown]
dose: 5.2 mg/kg/injection, schedule: Q04DX002 (ip), vehicle: water
  T/C: 96 % of control [survivor count not shown]
dose: 6.25 mg/kg/injection, schedule: Q01DX001 (ip), vehicle: saline
  T/C: 145 % of control [survivor count not shown]
dose: 7.0 mg/kg/injection, schedule: Q01DX001 (ip), vehicle: saline
  T/C: 113 % of control [survivor count not shown]
dose: 7.5 mg/kg/injection, schedule: Q#A X034 (ip), vehicle: saline
  T/C: 116 % of control [survivor count not shown]
dose: 8.0 mg/kg/injection, schedule: Q01DX Z (oral), vehicle: saline
  T/C: 100 % of control [survivor count not shown]
dose: 12.5 mg/kg/injection, schedule: Q01DX001 (ip), vehicle: saline
  T/C: 86 % of control [survivor count not shown]
dose: 14.0 mg/kg/injection, schedule: Q01DX001 (ip), vehicle: saline
  T/C: 110 % of control [survivor count not shown]
dose: 31.0 mg/kg/injection, schedule: Q#A X034 (ip), vehicle: saline
  T/C: 134 % of control [survivor count not shown]
dose: 124.0 mg/kg/injection, schedule: Q#A X034 (ip), vehicle: saline
  T/C: 144 % of control [survivor count not shown]
dose: 500.0 mg/kg/injection, schedule: Q#A X034 (ip), vehicle: saline
  T/C: 140 % of control [survivor count not shown]
dose: 3.7 micrograms/kg/injection, schedule: Q01DX017 (ip), vehicle: saline
  T/C: 104 % of control [survivor count not shown]
dose: 3.7 micrograms/kg/injection, schedule: Q02DX009 (ip), vehicle: saline
  T/C: 102 % of control [survivor count not shown]
dose: 3.8 micrograms/kg/injection, schedule: Q01DX Z (ip), vehicle: saline
  T/C: 95 % of control [survivor count not shown]
dose: 7.5 micrograms/kg/injection, schedule: Q01DX Z (ip), vehicle: saline
  T/C: 98 % of control [survivor count not shown]
dose: 10.0 micrograms/kg/injection, schedule: Q01DX Z (ip), vehicle: carboxymethylcellulose (CMC)
  T/C: 110 % of control [survivor count not shown]
dose: 12.0 micrograms/kg/injection, schedule: Q01DX Z (ip), vehicle: carboxymethylcellulose (CMC)
  T/C: 112 % of control [survivor count not shown]
dose: 15.0 micrograms/kg/injection, schedule: Q01DX009 (ip), vehicle: water
  T/C: 96 [survivor count not shown] and 101 % of control [survivor count not shown]
dose: 15.0 micrograms/kg/injection, schedule: Q01DX017 (ip), vehicle: saline
  T/C: 117 % of control [survivor count not shown]
dose: 15.0 micrograms/kg/injection, schedule: Q01DX Z (ip), vehicle: saline
  T/C: 118 % of control [survivor count not shown]
dose: 15.0 micrograms/kg/injection, schedule: Q02DX009 (ip), vehicle: saline
  T/C: 120 % of control [survivor count not shown]
dose: 16.0 micrograms/kg/injection, schedule: Q01DX Z (ip), vehicle: carboxymethylcellulose (CMC)
  T/C: 116 % of control [survivor count not shown]
dose: 24.0 micrograms/kg/injection, schedule: Q01DX Z (ip), vehicle: carboxymethylcellulose (CMC)
  T/C: 133 % of control [survivor count not shown]
dose: 30.0 micrograms/kg/injection, schedule: Q01DX001 (ip), vehicle: saline
  T/C: 120 % of control [survivor count not shown]
dose: 30.0 micrograms/kg/injection, schedule: Q01DX009 (ip), vehicle: water
  T/C: 109 [survivor count not shown] and 111 % of control [survivor count not shown]
dose: 30.0 micrograms/kg/injection, schedule: Q01DX Z (ip), vehicle: saline
  T/C: 132 % of control [survivor count not shown]
dose: 30.0 micrograms/kg/injection, schedule: Q#A X Z (ip), vehicle: saline
  T/C: 135 % of control [survivor count not shown]
dose: 60.0 micrograms/kg/injection, schedule: Q01DX001 (ip), vehicle: saline
  T/C: 125 % of control [survivor count not shown]
dose: 60.0 micrograms/kg/injection, schedule: Q01DX009 (ip), vehicle: water
  T/C: 104 [survivor count not shown] and 107 % of control [survivor count not shown]
dose: 60.0 micrograms/kg/injection, schedule: Q01DX Z (ip), vehicle: saline
  T/C: 138 % of control [survivor count not shown]
dose: 60.0 micrograms/kg/injection, schedule: Q#A X Z (ip), vehicle: saline
  T/C: 149 % of control [survivor count not shown]
dose: 62.0 micrograms/kg/injection, schedule: Q01DX017 (ip), vehicle: saline
  T/C: 147 % of control [survivor count not shown]
dose: 62.0 micrograms/kg/injection, schedule: Q02DX009 (ip), vehicle: saline
  T/C: 133 % of control [survivor count not shown]
dose: 95.0 micrograms/kg/injection, schedule: Q01DX Z (ip), vehicle: carboxymethylcellulose (CMC)
  T/C: 135 [survivor count not shown] and 165 % of control [survivor count not shown]
dose: 110.0 micrograms/kg/injection, schedule: Q01DX001 (ip), vehicle: saline
  T/C: 130 % of control [survivor count not shown]
